Experimental data reported in PMC7956376.

By UniProt entry, the sequences of proteins in these tests, tags left out. Where a name states a change or a piece, a line headed by the entry shows the natural chain unless it says otherwise.
UniProt Q93X17: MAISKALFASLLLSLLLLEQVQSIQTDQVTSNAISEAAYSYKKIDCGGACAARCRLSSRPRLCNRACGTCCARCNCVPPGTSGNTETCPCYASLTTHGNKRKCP

B1: Class III peroxidase Prx9, in potato extract (enzyme, UniProt M1A251 1-334)
chain: MALGATHLSLAFCLMALIVLVKADFDGKKEPINNILEQNSEMLTQDFCIFAAVGSVVAEAIARERRMGASLIRLFFHDCFVDGCDAGILLDDIPGRFQGEKTSPPNNNSVRGYQVIDQAKQRIKTMCPGAAVSCADILALAARDSVAMLGGIPYPVSLGRKDARTANFTGALIQLPAPFDDLNVQLKKFSDKGMSAREMVALVGSHTVGFARCVTLCDDRNINPAMKSTLKCGCPVSNNNTNLVPLDLMTPDFFDKFYYEDLIRNQGLLFSDQVLMGSTATANVVRTYNSNPALFLREFNDAMIKMGNLPPSRGVQLEIRNVCSKVNGNSIADM
B2: Class III peroxidase Prx10, in potato extract (enzyme, UniProt M1CCJ9 1-359)
chain: MASTTLYTLASSLVLILSIFVSIHFQVTKAQGTQPIVKGLSWTFYDSICPNAESIIRRRLQNVFRQDIGQAAGLLRLHFHDCFVQGCDGSVLLDGSTSGPSEKDAPPNLTLRQQAFRIIEDLRRRVHRDCGRVVSCADITAIAARDSVFFSGGPDYDLPLGRRDGLTFATLNETLANLPPPSFNTSLILASLATKNFTPTDVVALSGGHTIGISHCTSFTERLYPNQDSSMDKTFANNLKITCPTTNSTNTTVLDIRSPNKFDNKYYVDLMNRQGLFTSDQDLYTDRRTRGIVTSFAINESLFFQEFVNSMIKMGQLNVLTGTQGQIRANCSVRNSNNYNLILPSSLGDQEKQGTWSEI

Biological target: Snakin-2 (StSN2), as present in transgenic potato lines (potato (Solanum tuberosum, cultivar Chuanyu 10)) (UniProt Q93X17)
Experiment: affinity purification with mass spectrometry; CoIP-MS: rabbit anti-StSN2 antibody (raised against the peptide …) used to co-immunoprecipitate SN2-interacting proteins from RNAi line 7 and OE line 27; in-gel tryptic digestion, LC-MS/MS

Row | Binder | binding
1 | B1 | binds
2 | B2 | binds

Results are given in words; binding and its absence hold for the method and conditions named. In cells and extracts the contact can be indirect. Here binding means that the protein was enriched with, or labelled near, the bait; the list need not be complete.
